# Measured values from paper PMC9855884, “Glycosylated Lipopeptides—Synthesis and Evaluation of Antimicrobial Activity and Cytotoxicity” (Biomolecules, 2023).
# System: human keratinocytes (HaCaT)
# Experiment: MTT assay, cytotoxicity
# Format: cell-based
# Experimental: To evaluate the cytotoxicity of the test peptides (IC50), the classic MTT assay on 96-well plates was performed for human keratinocytes (HaCaT) which were acquired from the ATCC. The assay was based on colorimetric determination of the cell metabolic activity where the color intensity reflected the number of live cells that could be measured spectrophotometrically. The cell line was cultured in a Dulbecco’s modified Eagle Medium (Invitrogen) supplemented with 10% fetal bovine serum (v/v), 100 units/mL of penicillin, 100 μg/mL of streptomycin, and 2 mM L-glutamine and was kept at 37 °C in a humidified 5% CO2 incubator. Briefly, a day after plating of 500 cells per well, a series of concentrations (0.5–500 μg/mL) of the test compounds were applied. DMSO was added to the control cells at a final concentration of 1.0% (v/v), which was related to the maximum concentration of the solvent compounds used in the experiment. After 24 h of incubation at 37 °C (humidified 5% CO2 incubator) with the peptides, a medium containing 1 mg/mL of MTT was added to the wells up to a final concentration of 0.5 mg/mL. Subsequently, the plates were incubated at 37 °C for 4 h. Then, the medium was aspirated, and the formazan product was solubilized with DMSO. The background absorbance at 630 nm was subtracted from that at 570 nm for each well (Epoch, BioTek Instruments, Winooski, VT, USA). Six replicates were conducted for each concentration. All experiments were repeated at least twice and the resulting IC50 values were calculated with a GraFit 7 software (v. 7.0, Erithacus, Berkley, CA, USA).
# The selectivity indexes were calculated for all the strains as IC50/MIC. According to IC50, in most cases, glycosylation caused only a slight decrease in toxicity. However, in contrast with SI calculated for HC50, the differences between USCLs and gUSCLs are not so distinct. […] Moreover, toxicity of USCLs and gUSCLs is high and exceeds their antimicrobial activity. The lipopetides were not selective against Gram-negative strains (K. pneumoniae, A. baumannii, P. aeruginosa, K. aerogenes) over human cells. A few USCLs were selective (SI > 1) against E. faecium and S. aureus with SI up to 1.87; and some gUSCLs were selective against E. faecium but not against S. aureus, with SI between 0.63 and 1.73. […] In this case, SI of gUSCLs was noticeably […] than that of corresponding parent USCLs (2.07, 1.99, 2.67 vs. 2.53, 2.36, 3.46, respectively). Selectivity indexes were plotted against adjusted retention time (Figures S15–S21). A moderate linear correlation was found in USCLs and K. pneumoniae, C. glabrata, and gUSCLs and K. pneumoniae, K. aerogenes (R^2 between 0.6064 and 0.6481). A relatively high linear correlation was obtained for USCLs and K. aerogenes (R^2 of 0.8214) and also for gUSCLs and C. glabrata (R^2 of 0.9223).
SMILES,"Selectivity Index (SI), IC50/MIC (A. baumannii)","Selectivity Index (SI), IC50/MIC (C. glabrata)","Selectivity Index (SI), IC50/MIC (E. faecium)","Selectivity Index (SI), IC50/MIC (K. aerogenes)","Selectivity Index (SI), IC50/MIC (K. pneumoniae)","Selectivity Index (SI), IC50/MIC (P. aeruginosa)","Selectivity Index (SI), IC50/MIC (S. aureus)"
"CCCCCCCCCCCCCCCC(=O)N[C@@H](CCCNC(=N)N)C(=O)N[C@@H](CO[C@@H]1O[C@H](CO)[C@@H](O)[C@H](O)[C@H]1NC(C)=O)C(=O)N[C@@H](CCCNC(=N)N)C(N)=O [Peptide 14, C16-RS(GlcNAc)R-NH2] (Palmitoyl-Arg-Ser(βGlcNAc)-Arg-NH2)",0.44,0.88,0.88,0.22,0.11,0.44,0.88
"CCCCCCCCCCCCCCCC(=O)N[C@@H](CCCNC(=N)N)C(=O)N[C@@H](CCCNC(=N)N)C(=O)N[C@@H](CO[C@@H]1O[C@H](CO)[C@@H](O)[C@H](O)[C@H]1NC(C)=O)C(N)=O [Peptide 15, C16-RRS(GlcNAc)-NH2] (Palmitoyl-Arg-Arg-Ser(βGlcNAc)-NH2)",0.16,0.32,0.65,0.02,0.02,0.08,0.32
"CCCCCCCCCCCCCCCC(=O)N[C@@H](CO[C@@H]1O[C@H](CO)[C@@H](O)[C@H](O)[C@H]1NC(C)=O)C(=O)N[C@@H](CCCNC(=N)N)C(=O)N[C@@H](CCCNC(=N)N)C(N)=O [Peptide 13, C16-S(GlcNAc)RR-NH2] (Palmitoyl-Ser(βGlcNAc)-Arg-Arg-NH2)",0.33,0.33,0.66,0.02,0.04,0.33,0.66
"CCCCCCCCCCCCCC(=O)N[C@@H](CCCNC(=N)N)C(=O)N[C@@H](CO[C@@H]1O[C@H](CO)[C@@H](O)[C@H](O)[C@H]1NC(C)=O)C(=O)N[C@@H](CCCNC(=N)N)C(N)=O [Peptide 11, C14-RS(GlcNAc)R-NH2] (Myristoyl-Arg-Ser(βGlcNAc)-Arg-NH2)",0.39,0.20,0.79,–,–,0.20,0.39
"CCCCCCCCCCCCCC(=O)N[C@@H](CO[C@@H]1O[C@H](CO)[C@@H](O)[C@H](O)[C@H]1NC(C)=O)C(=O)N[C@@H](CCCNC(=N)N)C(=O)N[C@@H](CCCNC(=N)N)C(N)=O [Peptide 10, C14-S(GlcNAc)RR-NH2] (Myristoyl-Ser(βGlcNAc)-Arg-Arg-NH2)",0.25,0.13,1.00,–,–,0.13,0.50
"CCCCCCCCCCCCCCCC(=O)N[C@@H](CCCNC(=N)N)C(=O)N[C@@H](CCCNC(=N)N)C(=O)N[C@@H](CO)C(N)=O [Peptide 6, C16-RRS-NH2] (Palmitoyl-Arg-Arg-Ser-NH2)",0.25,0.98,0.98,0.12,0.25,0.49,0.98
"CCCCCCCCCCCCCCCCCC(=O)N[C@@H](CCCNC(=N)N)C(=O)N[C@@H](CCCNC(=N)N)C(=O)N[C@@H](CO)C(N)=O [Peptide 9, C18-RRS-NH2] (Stearoyl-Arg-Arg-Ser-NH2)",0.33,2.67,1.34,0.33,0.67,0.17,1.34
"CCCCCCCCCCCCCCCCCC(=O)N[C@@H](CCCNC(=N)N)C(=O)N[C@@H](CO)C(=O)N[C@@H](CCCNC(=N)N)C(N)=O [Peptide 8, C18-RSR-NH2] (Stearoyl-Arg-Ser-Arg-NH2)",0.12,1.99,1.00,0.25,0.25,0.12,0.50
"CCCCCCCCCCCCCC(=O)N[C@@H](CCCNC(=N)N)C(=O)N[C@@H](CO)C(=O)N[C@@H](CCCNC(=N)N)C(N)=O [Peptide 2, C14-RSR-NH2] (Myristoyl-Arg-Ser-Arg-NH2)",0.23,0.47,1.87,0.03,0.03,0.23,1.87
"CCCCCCCCCCCCCCCCCC(=O)N[C@@H](CCCNC(=N)N)C(=O)N[C@@H](CO[C@@H]1O[C@H](CO)[C@@H](O)[C@H](O)[C@H]1NC(C)=O)C(=O)N[C@@H](CCCNC(=N)N)C(N)=O [Peptide 17, C18-RS(GlcNAc)R-NH2] (Stearoyl-Arg-Ser(βGlcNAc)-Arg-NH2)",0.59,2.36,1.18,0.30,0.59,0.30,0.59
"CCCCCCCCCCCCCC(=O)N[C@@H](CCCNC(=N)N)C(=O)N[C@@H](CCCNC(=N)N)C(=O)N[C@@H](CO[C@@H]1O[C@H](CO)[C@@H](O)[C@H](O)[C@H]1NC(C)=O)C(N)=O [Peptide 12, C14-RRS(GlcNAc)-NH2] (Myristoyl-Arg-Arg-Ser(βGlcNAc)-NH2)",0.32,0.16,1.28,–,–,0.08,0.64
"CCCCCCCCCCCCCCCCCC(=O)N[C@@H](CO)C(=O)N[C@@H](CCCNC(=N)N)C(=O)N[C@@H](CCCNC(=N)N)C(N)=O [Peptide 7, C18-SRR-NH2] (Stearoyl-Ser-Arg-Arg-NH2)",0.26,2.07,1.04,0.52,0.52,0.13,0.52
"CCCCCCCCCCCCCCCCCC(=O)N[C@@H](CO[C@@H]1O[C@H](CO)[C@@H](O)[C@H](O)[C@H]1NC(C)=O)C(=O)N[C@@H](CCCNC(=N)N)C(=O)N[C@@H](CCCNC(=N)N)C(N)=O [Peptide 16, C18-S(GlcNAc)RR-NH2] (Stearoyl-Ser(βGlcNAc)-Arg-Arg-NH2)",0.63,2.53,0.63,0.32,0.16,0.32,0.63
"CCCCCCCCCCCCCCCCCC(=O)N[C@@H](CCCNC(=N)N)C(=O)N[C@@H](CCCNC(=N)N)C(=O)N[C@@H](CO[C@@H]1O[C@H](CO)[C@@H](O)[C@H](O)[C@H]1NC(C)=O)C(N)=O [Peptide 18, C18-RRS(GlcNAc)-NH2] (Stearoyl-Arg-Arg-Ser(βGlcNAc)-NH2)",0.43,3.46,1.73,0.43,0.43,0.43,0.87
"CCCCCCCCCCCCCC(=O)N[C@@H](CCCNC(=N)N)C(=O)N[C@@H](CCCNC(=N)N)C(=O)N[C@@H](CO)C(N)=O [Peptide 3, C14-RRS-NH2] (Myristoyl-Arg-Arg-Ser-NH2)",0.22,0.45,1.78,0.03,0.03,0.22,0.89

# Where a SMILES comes first, the peptide text is derived from it. The star is where a group is joined. βGlcNAc = CC(=O)N[C@@H]1[C@@H](O)[C@H](O)[C@@H](CO)O[C@H]1*; Stearoyl = CCCCCCCCCCCCCCCCCC(=O)*; Palmitoyl = CCCCCCCCCCCCCCCC(=O)*; Myristoyl = CCCCCCCCCCCCCC(=O)*
